In publication PMC10045837:
These are yes or no findings as the source states them, for the method shown. Binding seen in cells or lysates may run through a third protein. Some results given as binding are weak or reduced against the parent protein; the word gives no strength.

By UniProt entry, the sequences of proteins in these tests, tags left out. Where a name states a change or a piece, a line headed by the entry shows the natural chain unless it says otherwise.
UniProt Q9Y4P1: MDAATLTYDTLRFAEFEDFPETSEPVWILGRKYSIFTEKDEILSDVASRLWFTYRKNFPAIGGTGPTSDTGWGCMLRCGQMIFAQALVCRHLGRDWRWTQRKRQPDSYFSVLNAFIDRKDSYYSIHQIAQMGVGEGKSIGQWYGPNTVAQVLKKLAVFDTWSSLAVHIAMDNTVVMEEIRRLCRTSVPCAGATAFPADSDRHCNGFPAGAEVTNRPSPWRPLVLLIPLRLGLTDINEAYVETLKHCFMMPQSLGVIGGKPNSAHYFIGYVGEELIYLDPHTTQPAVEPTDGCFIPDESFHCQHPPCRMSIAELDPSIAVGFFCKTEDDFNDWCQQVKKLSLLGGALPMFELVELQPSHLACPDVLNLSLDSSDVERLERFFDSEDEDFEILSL

Target: Bt-LC3A-propargylamide (12) (UniProt Q9H492)
Experiment: pull-down; 3 μM biotin probe 11 or 12 added to HEK293T lysate (0.8% NP40, 150 mM NaCl, 50 mM Tris-HCl pH 8.0, 0.05 mM MgCl2), 1 h at 37 °C, NeutrAvidin agarose overnight at 4 °C, harsh washing 5 times with lysis buffer containing 2% SDS, Western blot with anti-GFP; only the target purified

binding	Substance
binds	GFP-tagged Atg4B (from UniProt Q9Y4P1 1-393) (enzyme)
binds	GFP-tagged Atg4B C74A (from UniProt Q9Y4P1 1-393) (enzyme)
